Test results from publication PMC6650902.
Results are given in words; binding and its absence hold for the method and conditions named. In cells and extracts the contact can be indirect. A yes stands for co-enrichment or nearness to the bait. Other partners may have been found.

T1: TAF1-TAP (S. cerevisiae) (UniProt P46677)
T1 sequence: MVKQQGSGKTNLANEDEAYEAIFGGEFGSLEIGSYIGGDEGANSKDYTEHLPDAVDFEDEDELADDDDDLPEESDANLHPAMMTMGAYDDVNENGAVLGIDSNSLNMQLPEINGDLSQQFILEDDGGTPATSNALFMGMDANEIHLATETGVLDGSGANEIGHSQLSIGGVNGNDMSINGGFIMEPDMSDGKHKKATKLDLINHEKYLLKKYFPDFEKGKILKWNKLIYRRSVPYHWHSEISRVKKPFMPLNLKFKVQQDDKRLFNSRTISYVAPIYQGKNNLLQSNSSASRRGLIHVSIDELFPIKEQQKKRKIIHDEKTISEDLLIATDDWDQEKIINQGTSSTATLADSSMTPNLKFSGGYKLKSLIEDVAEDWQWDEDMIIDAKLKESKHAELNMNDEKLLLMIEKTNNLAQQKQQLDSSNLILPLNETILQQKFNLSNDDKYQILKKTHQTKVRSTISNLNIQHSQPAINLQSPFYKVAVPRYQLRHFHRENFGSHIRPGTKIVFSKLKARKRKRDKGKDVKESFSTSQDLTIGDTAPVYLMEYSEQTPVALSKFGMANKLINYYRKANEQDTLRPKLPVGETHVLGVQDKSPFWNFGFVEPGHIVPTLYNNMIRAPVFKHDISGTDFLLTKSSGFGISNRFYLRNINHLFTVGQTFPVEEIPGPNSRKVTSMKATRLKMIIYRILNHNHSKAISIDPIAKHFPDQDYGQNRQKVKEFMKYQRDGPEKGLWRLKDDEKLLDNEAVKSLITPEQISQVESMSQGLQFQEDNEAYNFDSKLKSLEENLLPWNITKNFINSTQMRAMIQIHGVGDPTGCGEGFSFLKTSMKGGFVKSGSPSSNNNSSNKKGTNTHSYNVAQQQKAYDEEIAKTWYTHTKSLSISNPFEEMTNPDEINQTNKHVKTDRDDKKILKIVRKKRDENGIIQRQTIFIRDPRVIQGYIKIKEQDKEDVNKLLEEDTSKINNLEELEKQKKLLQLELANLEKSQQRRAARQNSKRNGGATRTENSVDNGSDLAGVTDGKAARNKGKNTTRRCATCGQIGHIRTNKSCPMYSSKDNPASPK


Target: T1, TAF1-TAP (S. cerevisiae)
Assay: affinity purification with mass spectrometry; lysate of the TAF1-TAP strain on an IgG column; washes with 1 M and 50 mM potassium acetate; TEV protease elution; Superose 6 size exclusion (single peak at about 12.6 mL); subunits seen by SDS-PAGE and confirmed by mass spectrometry

binding	Binder
binds	TAF9 (protein, UniProt Q05027 1-157) MNGGGKNVLNKNSVGSVSEVGPDSTQEETPRDVRLLHLLLASQSIHQYEDQVPLQLMDFAHRYTQGVLKDALVYNDYAGSGNSAGSGLGVEDIRLAIAARTQYQFKPTAPKELMLQLAAERNKKALPQVMGTWGVRLPPEKYCLTAKEWDLEDPKSM
binds	TAF10 (protein, UniProt Q12030 1-206) MDFEEDYDAEFDDNQEGQLETPFPSVAGADDGDNDNDDSVAENMKKKQKREAVVDDGSENAFGIPEFTRKDKTLEEILEMMDSTPPIIPDAVIDYYLTKNGFNVADVRVKRLLALATQKFVSDIAKDAYEYSRIRSSVAVSNANNSQARARQLLQGQQQPGVQQISQQQHQQNEKTTASKVVLTVNDLSSAVAEYGLNIGRPDFYR
